Experimental data: PubChem BioAssay AID1347076 (National Center for Advancing Translational Sciences (NCATS), 2019)
The campaign covered roughly 400,000 compounds. About 13,000 (3.2%) were called active. Inconclusive means that the source gave no clear call. Such entries were picked first, then a sample of the others. The call rests on the fitted dose curve; in most records, active means well fitted cell-killing curve with a large enough effect; inconclusive means small, poorly fitted or top-dose-only effect, or effect the other way; inactive means flat fitted curve, though single readings scatter. A potency beside an inconclusive call is a rough fit, not a confirmed value.
On the % scale 0 is the no-effect control and ±100 the full control effect; potency means the concentration at half of the fitted maximal effect.

Experiment: qHTS assay for MDR1-selective chemotherapeutics: Primary screen using the drug-selected MDR subline cells KB-V1; further: nearly all actives have a fitted effect of over 60% in size
Settings: KB-V1 MDR cells viability, CellTiter-Glo, 72 h; activity change, negative = cytotoxicity: at 46.1 µM (top of the series)
Outline: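 Potencies derive from concentration-effect curves fitted to normalized luminescence (CellTiter-Glo) of KB-V1 cells treated for 72 h at 37 degrees C in phenol-red-free DMEM containing 10% FBS.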
For `Oc1ccc(CCC2CCCCN2Cc2nc(C3CC3)no2)cc1` (stereo not given), the Potency was inconclusive: 16.4 µM [cytotoxic, single point]. With `Cc1ccc(OCC(=O)OC2CCS(=O)(=O)C2)cc1` (stereo not given) the Potency was inconclusive: 23.1 µM [rising, single point]. In the case of `COc1ccc(/C=C/C(=O)c2cc(F)ccc2OC(=O)c2ccccc2OC)cc1OC`, the Potency was active: 3.26 µM. In the case of `COc1ccc(CCN2C(=O)CSCC2(C)C(=O)Nc2ccc3c(c2)OCCO3)cc1OC` (stereo not given), the Potency was inconclusive: 2.59 µM [cytotoxic, full curve]. In the case of `CCOc1ccc(OCc2cccc(C(=O)N3CCCC3)c2)cc1`, the Potency was inconclusive: 29.1 µM [cytotoxic, single point]. For `CC(C)CC1C(=O)N(Cc2cn(CCC3OCCO3)nn2)CCS(=O)(=O)N1Cc1ccc(-c2ccc(F)nc2)cc1` (stereo not given), the “activity change, negative = cytotoxicity” value was inactive: -17.8%. In the case of `N#Cc1ccc(Nc2nc(-c3ccccc3)c(C(=O)c3ccccc3)s2)cc1`, the Potency was inconclusive: 29.1 µM [cytotoxic, single point]. With `COc1cc(NC(=O)c2ccccc2)c(OC)cc1NC(=O)CN1CCCCC1` the “activity change, negative = cytotoxicity” value was inactive: -22.6%. In the case of `CCN(CC)C(=O)Oc1ccc2c(=O)c(-c3ccc(OC)cc3)coc2c1`, the Potency was active: 11.6 µM. With `O=C(COc1cccnc1[N+](=O)[O-])Nc1ccccc1Sc1ccccc1` the Potency was active: 13 µM. With `CC(=O)c1ccc(OCC(=O)Nc2cccc(S(=O)(=O)N3CCCC3)c2)cc1` the Potency was inconclusive: 18.4 µM [cytotoxic, partial curve, poor fit]. For `CCCNC(=O)CS(=O)(=O)c1ccccc1`, the Potency was inconclusive: 18.4 µM [rising, single point]. With `CSc1ccc(-c2nc3ccc(C)cn3c2Nc2ccccc2C)cc1` the “activity change, negative = cytotoxicity” value was inactive: -19.2%. With `CCOC(=O)Cc1csc(SC(C)C(=O)NC2CCCCC2C)n1` (stereo not given) the Potency was inconclusive: 20.6 µM [cytotoxic, partial curve]. For `CCCCCCOC(=O)C1=C(C)NC(=O)NC1c1ccc(O)cc1` (stereo not given), the Potency was inconclusive: 29.1 µM [rising, single point]. In the case of `COc1ccccc1NS(=O)(=O)c1cccc(C(=O)N/N=C2\CC(=O)CC(C)(C)C2)c1`, the Potency was inconclusive: 0.82 µM [rising, full curve]. For `COc1ccc(Cn2c(CCC(=O)NCc3ccco3)nc3cccnc32)cc1`, the Potency was active: 20.6 µM. For `Cc1ccc(Cl)c(OCC(=O)Nc2cccnc2)c1`, the “activity change, negative = cytotoxicity” value was inactive: 9.64%. With `CCc1nc(N2CCN(C(=O)c3ccco3)CC2)c2oc3ccccc3c2n1` the Potency was active: 20.6 µM. With `COc1cc(OC)cc(C(=O)Nc2nc3ccccc3[nH]2)c1` the Potency was inconclusive: 29.1 µM [cytotoxic, single point]. For `Cc1cccc(Oc2nc3c(c(=O)n(C)c(=O)n3C)n2C)c1`, the Potency was inconclusive: 10.3 µM [rising, partial curve]. With `O=C(COC(=O)C1=COCCO1)Nc1ccc2c(c1)OCO2` the Potency was inconclusive: 29.1 µM [rising, partial curve, poor fit]. For `Cc1sc2nc3ccc(N4CCCC4)nn3c(=O)c2c1C`, the Potency was active: 16.4 µM. In the case of `Cc1ccc2nc(-c3ccc(NC(=O)CSc4nc(N)cc(=O)[nH]4)cc3)sc2c1`, the “activity change, negative = cytotoxicity” value was inactive: 0%. For `Cn1c(=O)c2c(nc(SCC(=O)NCC3CCCO3)n2Cc2ccc(F)cc2)n(C)c1=O` (stereo not given), the Potency was inconclusive: 20.6 µM [cytotoxic, single point]. With `CCN1C(=NCCOC)N[C@@H](c2ccccc2)[C@H](C(=O)OC)[C@H]1C` the Potency was inconclusive: 18.4 µM [rising, single point]. In the case of `COc1ccc(-c2nc3ccccc3nc2-c2ccc(OC)cc2)cc1`, the “activity change, negative = cytotoxicity” value was inactive: -1.12%. With `O=C(NCC12CC3CC(CC(C3)C1)C2)c1cc2nc(-c3ccccc3)cc(C(F)(F)F)n2n1` the Potency was inconclusive: 18.4 µM [cytotoxic, single point]. In the case of `CCOC(=O)C(Cc1ccccc1)C(=O)Nc1nccs1` (stereo not given), the Potency was inconclusive: 8.2 µM [rising, partial curve, poor fit]. With `NC(=O)C1CCN(CC(=O)NC(=O)NC2CCCC2)CC1` the Potency was inconclusive: 29.1 µM [rising, single point]. In the case of `COc1ccc(N(C(=O)c2csnn2)C(C(=O)NC2CCCC2)c2cccs2)cc1` (stereo not given), the Potency was inconclusive: 8.2 µM [cytotoxic, partial curve]. With `COC(=O)c1cc2ccccc2c(-c2c(O)ccc3ccccc23)c1O` the Potency was inconclusive: 20.6 µM [cytotoxic, single point]. With `CCCCNc1c(-c2cccc(-c3cc(C(C)=O)cs3)c2)nc2ccc(C)cn12` the Potency was active: 20.6 µM. In the case of `O=C(CNC(=O)c1ccccc1)OC(C(=O)Nc1cc(C(F)(F)F)ccc1Cl)c1ccccc1` (stereo not given), the Potency was inconclusive: 18.4 µM [rising, single point]. In the case of `COc1ccc2[nH]c(=O)c(CNc3ccc(C)c(C)c3)cc2c1`, the Potency was inconclusive: 29.1 µM [cytotoxic, single point]. For `COc1ccc(CNC(=O)C2CCCN(c3nccc(C)n3)C2)cc1` (stereo not given), the Potency was inconclusive: 13 µM [cytotoxic, partial curve]. For `Cc1cccc(Sc2c([N+](=O)[O-])ncn2C)c1`, the “activity change, negative = cytotoxicity” value was inactive: -7.66%. In the case of `O=C(C1CCCN(Cc2ccncc2)C1)N1CCc2ccccc2C1` (stereo not given), the “activity change, negative = cytotoxicity” value was inactive: -21.4%. In the case of `O=C(NC1CCCC1)C(C1CC1)n1c(C2CC2)nc2ccccc21` (stereo not given), the Potency was inconclusive: 23.1 µM [cytotoxic, single point]. With `N#CCCN(C(=O)CN1CCN(S(=O)(=O)c2ccc3c(c2)OCCO3)CC1)c1ccc(F)cc1` the Potency was inconclusive: 18.4 µM [cytotoxic, single point]. For `COc1cc(CN2c3ccccc3C(=O)CS2(=O)=O)cc(OC)c1`, the “activity change, negative = cytotoxicity” value was inactive: 22.8%. In the case of `CCc1ccccc1N1C(=O)N(Cc2ccccc2C)c2ccccc2S1(=O)=O`, the Potency was inconclusive: 2.31 µM [cytotoxic, partial curve, poor fit]. With `COc1ccc(S(=O)(=O)n2ccnc2)cc1C(C)(C)C` the Potency was inconclusive: 25.9 µM [rising, single point]. With `CN1CCN(C2=Nc3ccccc3Oc3ccc(Cl)cc32)CC1` the Potency was inconclusive: 6.51 µM [cytotoxic, partial curve, poor fit]. In the case of `CC(C)CN(CCCNC(=O)CN1C(=O)CSc2ccc(S(=O)(=O)N3CCOCC3)cc21)CC(C)C`, the Potency was inconclusive: 29.1 µM [rising, single point].
